Results taken from article PMC5466756.
Results are given in words; binding and its absence hold for the method and conditions named. In cells and extracts the contact can be indirect. Here binding means that the protein was enriched with, or labelled near, the bait; the list need not be complete.

Amino acid sequences for entries named in this document (tags omitted). Residues count along the entry.
UniProt P28799, residues 18-593: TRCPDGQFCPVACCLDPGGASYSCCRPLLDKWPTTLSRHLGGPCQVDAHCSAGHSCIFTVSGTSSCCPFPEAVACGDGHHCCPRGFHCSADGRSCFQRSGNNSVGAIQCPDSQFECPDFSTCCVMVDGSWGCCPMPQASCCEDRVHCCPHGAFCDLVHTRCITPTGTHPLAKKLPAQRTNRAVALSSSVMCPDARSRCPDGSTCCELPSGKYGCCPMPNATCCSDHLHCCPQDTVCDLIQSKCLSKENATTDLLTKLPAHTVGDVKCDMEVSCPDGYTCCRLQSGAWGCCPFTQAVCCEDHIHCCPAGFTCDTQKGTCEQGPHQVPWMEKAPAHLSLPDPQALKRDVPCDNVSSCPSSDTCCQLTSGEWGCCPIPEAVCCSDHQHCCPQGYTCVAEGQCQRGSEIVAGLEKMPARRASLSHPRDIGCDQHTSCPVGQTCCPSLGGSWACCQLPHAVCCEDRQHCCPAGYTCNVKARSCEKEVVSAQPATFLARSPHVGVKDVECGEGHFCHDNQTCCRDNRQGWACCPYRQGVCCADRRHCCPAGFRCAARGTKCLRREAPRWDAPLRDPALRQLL
UniProt P11021, residues 19-654: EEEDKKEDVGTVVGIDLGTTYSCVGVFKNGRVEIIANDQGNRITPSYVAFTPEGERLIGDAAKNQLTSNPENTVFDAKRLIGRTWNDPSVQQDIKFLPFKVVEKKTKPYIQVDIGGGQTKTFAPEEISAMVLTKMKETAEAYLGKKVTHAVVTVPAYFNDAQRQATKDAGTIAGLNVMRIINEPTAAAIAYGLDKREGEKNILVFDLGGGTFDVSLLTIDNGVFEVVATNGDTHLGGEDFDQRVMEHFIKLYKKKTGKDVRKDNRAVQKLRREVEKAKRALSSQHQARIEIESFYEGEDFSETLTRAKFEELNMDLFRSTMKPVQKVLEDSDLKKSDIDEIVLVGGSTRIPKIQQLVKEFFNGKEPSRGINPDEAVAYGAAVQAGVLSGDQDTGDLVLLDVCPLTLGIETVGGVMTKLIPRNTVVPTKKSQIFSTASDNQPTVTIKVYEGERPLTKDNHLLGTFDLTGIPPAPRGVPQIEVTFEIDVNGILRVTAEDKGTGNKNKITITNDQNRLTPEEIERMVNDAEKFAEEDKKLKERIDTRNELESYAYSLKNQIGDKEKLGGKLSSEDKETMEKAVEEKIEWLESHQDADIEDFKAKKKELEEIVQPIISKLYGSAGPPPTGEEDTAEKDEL

Biological target: Granulin-epithelin precursor (human) (UniProt P28799)
Experiment: affinity purification with mass spectrometry; lysate of the membrane fraction of Hep3B-FL (1% Triton X-100 lysis buffer) incubated with monoclonal anti-GEP antibody A23 overnight at 4 °C, protein G-Sepharose; the single extra Coomassie band (about 85 kDa) excised and identified by MALDI-TOF/TOF MS; controls lysate alone and antibody alone

78-kDa glucose-regulated protein (from UniProt P11021 19-654)
binding: binds
